# Experimental data taken from patent publication US12472179B2, “Combination of a CBP/p300 bromodomain inhibitor and a KRAS inhibitor for the treatment of cancer” (TOLREMO THERAPEUTICS AG, priority 2020, dated 2025).
# Entries after “also recorded” stand apart in the source; their conditions may differ. For at least one compound, name, drawing or mass did not settle the structure.
# What was measured:
# Format in all cases: cell-based
# SNU-1411 cells [1] = experiment: Label-free determination of cell proliferation, SNU-1411 confluency, MRTX849 (Example 7); conditions: SNU-1411, 32 days, CBP/p300 bromodomain inhibitor combined with 300 nM MRTX849
# Protocol: (§1) 2000 SNU-1411 cells [KCLB; 01411, a CRC (rectal adenocarcinoma) cell line carrying a KRAS G12C mutation], were seeded into 96 well plates (Greiner BioOne 655090) one day prior to drug treatment in RPMI medium containing 10% FCS and 2 mM L-Glutamine. The next day, the wells were imaged label-free using brightfield imaging on a CELIGO Image Cytometer to determine the initial cell confluency. […] Plates were regularly imaged over weeks using brightfield mode (CELIGO Imaging Cytometer) to track cell confluency in each well over time. Growth medium and treatments were replenished twice weekly. […] Confluency was determined using CELIGO software's built-in “confluence” analysis tool in the brightfield mode.
# NCI-H358 cells = experiment: Label-free determination of cell proliferation, NCI-H358 cell number, AMG510 (Example 9); conditions: NCI-H358, >20 days, 1 μM Compound A or 200 nM Compound C combined with 100 nM AMG510
# Protocol: 2000 NCI-H358 cells [KCLB; 25807; a non-small cell lung cancer (NSCLC) cell line with KRAS G12C mutation] were seeded into 96 well plates (Greiner BioOne 655090) one day prior to drug treatment in RPMI medium containing 10% FCS and 2 mM L-Glutamine. The next day, the wells were imaged label-free using brightfield imaging on a CELIGO ImageCytometer to determine the initial cell number. […] The cells were regularly imaged over weeks using brightfield mode (CELIGO Imaging Cytometer) to track cell proliferation in each well over time. Growth medium and treatments were replenished twice weekly. […] Cell numbers were determined using CELIGO software's built-in “direct cell counting” analysis tool in the brightfield mode.
# SW837 cells = experiment: Label-free determination of cell proliferation, SW837 confluency, AMG510 (Example 8); conditions: SW837, 49 days, CBP/p300 bromodomain inhibitor combined with 100 nM AMG510
# Protocol: 2000 SW837 cells [ATCC; CCL-235, a CRC (rectal adenocarcinoma) cell line carrying a KRAS G12C mutation], were seeded into 96 well plates (Greiner BioOne 655090) one day prior to drug treatment in RPMI medium containing 10% FCS and 2 mM L-Glutamine. The next day, the wells were imaged label-free using brightfield imaging on a CELIGO Image Cytometer to determine the initial cell confluency. […] Plates were regularly imaged over weeks using brightfield mode (CELIGO Imaging Cytometer) to track cell confluency in each well over time. Growth medium and treatments were replenished twice weekly. […] Confluency was determined using CELIGO software's built-in “confluence” analysis tool in the brightfield mode.
# SNU-1411 cells [2] = experiment: Label-free determination of cell proliferation, SNU-1411 confluency, AMG510 (Example 6); conditions: SNU-1411, 32 days, CBP/p300 bromodomain inhibitor combined with 300 nM AMG510
# Protocol: as §1
compound,measurement,setting,value
COc1cncc(-c2cc(Nc3cccc(F)c3)nc([C@@H]3CC[C@H](C)N(C(C)=O)C3)n2)c1 [Compound A],"development of drug resistance / re-growth, combined with MRTX849",SNU-1411 cells [1],prevent the development of drug resistance
same,"development of drug resistance / re-growth, combined with AMG510",NCI-H358 cells,prevent the development of drug resistance; also recorded: completely prevented re-growth
same,"development of drug resistance / re-growth, combined with AMG510",SW837 cells,prevent the development of drug resistance
same,"development of drug resistance / re-growth, combined with AMG510",SNU-1411 cells [2],prevent the development of drug resistance
